Results taken from patent US8415349B2, “Dicycloazaalkane derivatives, preparation processes and medical uses thereof” (Jiangsu Hansoh Pharmaceuticals Co., Ltd., priority 2008, dated 2013).
Where a name gives a salt, the structure may show the parent alone. At least one structure is not confirmed: it was looked up by name or label, or the drawing left a doubt.

Legend:
normal ICR mice = test: Oral glucose tolerance test in normal ICR mice (hypoglycemic effect); assay type: in vivo; conditions: two experiments, 1-10 mg/kg by gavage
Method: Species, strains: ICR mice […] The volume is 20 mL/kg. […] The volume is 20 mL/kg. 1. The effects of compounds on blood glucose levels in normal ICR mice Normal male ICR mice were randomly grouped according to weights, 6 mice in each group. The groups included a black control group as well as different doses of the treatment groups as follows: Test 1: Blank control: double-distilled water by gavage. Group 1: the compound of Example 1, 1 mg/kg by gavage; […] Test 2: Blank control: double-distilled water by gavage. Group 1: the compound of Example 1, 1 mg/kg by gavage; […] 2. Serum Glucose Determination: […] The blank tube was used to set the instrument to zero, the colorimetric assay was performed at OD 505 nm. Serum glucose concentration (BG, mmol/l)=ODsample tube/ODstandard tube×5.55 Data Processing and Statistical Analysis: 1. Mean±SD and Student-t test were used in statistical analysis. 2.

KKAy mice = test: Oral glucose tolerance test in type II diabetes KKAy mice; assay type: in vivo
Method: Species, Strains: KKAy mice Preparation Method: […] The volume is 10 mL/kg. The Effects of the Compounds on Blood Glucose in KKay Mice Normal KKAy mice had been fasted for 6 hours, and then were randomly grouped according to the weights and fasting blood glucose, 5 mice in each group. The groups included a blank control group as well as different doses of the treatment groups as follows: Test 1: male 0704 Blank control: double-distilled water by gavage […] Test 2: female 0816 Blank control: double-distilled water by gavage […] Test 3: male 0712 Black control: double-distilled water by gavage […] Test 4: female 0907 Black control: double-distilled water by gavage […] 3. Mean±SD and Student-t test, or Anova was used in statistical analysis. 4.

For `COC(=O)N1C[C@H]2C[C@@H](NCC(=O)N3CCC[C@H]3C#N)C[C@H]2C1` [Example 2, hydrochloride], the “hypoglycemic effect in oral glucose tolerance tests (conclusion)” value (normal ICR mice) was “significant hypoglycemic effect” and the “hypoglycemic effect on oral glucose tolerance test (conclusion)” value (KKAy mice) was “some hypoglycemic effects”.
